According to PubChem BioAssay AID720533 (National Center for Advancing Translational Sciences (NCATS), 2013):
Several values for one entry are separate records, joined by “and”; a condition that tells them apart may be missing. Identical values can stand only once. Out of some 18,000 compounds screened, about 750 (4.2%) were called active. This list was built around the results that the source calls inconclusive (neither active nor inactive); the mix of calls is not that of the screen. Calls come from the whole dose curve; tested in HEK293 cells. Potencies of inconclusive entries are doubtful fits and often do not repeat.
% is set by controls: 0 for no effect and ±100 for the full control effect; potency is the fitted concentration of half-maximal effect.

Assay: qHTS for Inhibitors of binding or entry into cells for Lassa Virus
Settings: Lassa virus pseudotyped entry inhibition, cell-based qHTS; activity change, negative = inhibition: at 49.2 µM (top of the series) unless noted
In the case of CCCCCC(=O)N1C[C@H](n2cc(COC(=O)c3ccccc3)nn2)[C@@H](O)C[C@H]1c1ccc(Cl)cc1, the Potency is reported as “inactive”. With O=C(OCc1cn([C@H]2CN(CC3CCCCC3)[C@@H](c3ccccc3)C[C@H]2O)nn1)c1ccccc1 the activity change, negative = inhibition was inconclusive: -7.53% [inhibitor]. With OC1(c2cccnc2)CCN(Cc2ccc3c(c2)CN(Cc2cccc(C(F)(F)F)c2)CCO3)CC1 the Potency was inconclusive: 8.91 µM [inhibitor, partial curve]. For O=C(c1cccc(Cl)c1)N1CCC(=O)N([C@H](COCc2cccc(Cl)c2)Cc2ccccc2)CC1, the Potency was inconclusive: 7.94 µM [inhibitor, partial curve]. In the case of CN(C)c1ccc(-c2nccc(NCCN3CCOCC3)n2)cc1, the Potency is reported as inconclusive: 35.5 µM [inhibitor, partial curve]. With NCCCCNS(=O)(=O)c1ccc2c(Cl)cccc2c1 the Potency was inconclusive: 35.5 µM [inhibitor, single point]. For C[C@@H]1C[C@H]2[C@@H]3CCC4=CC(=O)C=C[C@]4(C)[C@@]3(Cl)[C@@H](O)C[C@]2(C)[C@@]1(OC(=O)c1ccco1)C(=O)CCl, the Potency was inconclusive: 12.6 µM [inhibitor, partial curve]. In the case of CC(C)(C)c1ccc(C(=O)N2CCC(=O)N([C@H](COCc3ccc(Cl)cc3)Cc3ccccc3)CC2)cc1, the Potency is reported as inconclusive: 10 µM [inhibitor, partial curve, poor fit]. For COC(=O)CC=C[C@@H](C)[C@@H](C=NO[C@H](C)CN1CCCc2nc(C)c(C)cc21)N[S+](=O)([O-])c1ccc(C)cc1, the activity change, negative = inhibition was inactive: 14.1% [at 8.59 µM]. For Cc1nc2ccccc2nc1CN1CCOc2ccc(C3(O)CCN(c4ccccc4F)CC3)cc2C1, the Potency was inconclusive: 20 µM [inhibitor, partial curve]. For COc1ccc(-c2cc3c(c4c2ccn4C)C2CCC3C2)cn1 (stereo not drawn), the Potency was inconclusive: 35.3 µM [inhibitor, single point]. For CCCC(=O)O[C@]1(C(=O)COC(=O)CC)[C@@H](C)C[C@H]2[C@@H]3CCC4=CC(=O)C=C[C@]4(C)[C@@]3(F)[C@@H](O)C[C@@]21C, the Potency was inconclusive: 12.6 µM [inhibitor, partial curve]. With COc1cc2c(cc1OC)-c1c(O)c(OC)cc3c1[C@H](C2)N(C)CC3 the Potency was “inactive”. With CCOc1ccc2c3c1O[C@H]1[C@@H](O)C=C[C@H]4[C@@H](C2)N(C)CC[C@@]341 the Potency was inconclusive: 28.2 µM [inhibitor, partial curve, poor fit]. In the case of O=c1ccc2ccc(OS(=O)(=O)O)cc2o1, the Potency is reported as inconclusive: 0.1 µM [inhibitor, full curve]. In the case of CCN1C(=NCCc2ccccn2)NC(c2cccs2)C(C(=O)OC)=C1C (stereo not drawn), the activity change, negative = inhibition is reported as inactive: 0.196% [at 8.59 µM]. With COc1nccnc1NS(=O)(=O)c1ccc(N)cc1 the Potency was inconclusive: 14.1 µM [inhibitor, single point]. With C[C@@H](O[C@H]1OCCN(Cc2n[nH]c(=O)[nH]2)[C@H]1c1ccc(F)cc1)c1cc(C(F)(F)F)cc(C(F)(F)F)c1 the Potency was inconclusive: 31.6 µM [inhibitor, partial curve]. In the case of C/C(=C\c1csc(C)n1)[C@@H]1C[C@@H]2O[C@]2(C)CCC[C@H](C)[C@H](O)[C@@H](C)C(=O)C(C)(C)[C@@H](O)CC(=O)O1, the Potency is reported as inconclusive: 3.98 µM [inhibitor, full curve, poor fit]. With CCCCN(CCCC)CC(O)c1cc(Cl)cc2c1-c1ccc(Cl)cc1/C2=C/c1ccc(Cl)cc1 (stereo not drawn) the Potency was inconclusive: 35.5 µM [inhibitor, partial curve]. With CCCCCC1C(=O)O[C@H](C)[C@@H](NC(=O)c2cccc(NC=O)c2O)C(=O)OC(C)C1OC(=O)CC(C)C (stereo partly drawn) the Potency was inconclusive: 0.112 µM [inhibitor, full curve]. With CCC(=O)N[C@@H]1Cc2ccccc2[C@@H](c2ccccc2)C1 the Potency was inconclusive: 35.5 µM [inhibitor, single point]. For CCC(=O)OCC(=O)[C@@]1(OC(=O)CC)[C@H](C)C[C@H]2[C@@H]3CCC4=CC(=O)C=C[C@]4(C)[C@@]3(F)[C@@H](O)C[C@@]21C, the Potency was inconclusive: 11.2 µM [inhibitor, partial curve]. In the case of COc1c2c(c(CC=C(C)C)c3oc(=O)c(-c4ccc(O)cc4)c(O)c13)OC(C)(C)C=C2, the Potency is reported as “inactive”. In the case of C=C(CO[C@@H]1C=C[C@@H](c2ccccc2)O[C@@H]1CO)c1ccccc1, the activity change, negative = inhibition is reported as inactive: -23.9% [at 8.59 µM]. For CN(C(=O)Cc1ccc(Cl)c(Cl)c1)[C@H](CN1CCCC1)c1ccccc1, the Potency was active: 15.8 µM and active: 20 µM. In the case of CN(c1cc2c(c3c1ccn3C)C1CCC2O1)C1CCCCC1 (stereo not drawn), the activity change, negative = inhibition is reported as inconclusive: -40.6% [inhibitor]. In the case of Cc1cc2c(nc1C)CCCN2CC(O)CN1CCCc2nc(-c3ccc(Br)cc3)ccc21 (stereo not drawn), the activity change, negative = inhibition is reported as inactive: 1.53% [at 8.59 µM] and inactive: 10.1% [at 8.59 µM]. In the case of CN(C(Cc1ccc(OS(=O)(=O)c2cccc3cnccc23)cc1)C(=O)N1CCN(c2ccccc2)CC1)S(=O)(=O)c1cccc2cnccc12 (stereo not drawn), the Potency is reported as active: 10 µM. With O=C(NCc1ccccc1)OCCN1CCN(Cc2ccccc2)CCC1=O the Potency was inconclusive: 50.1 µM [inhibitor, partial curve, poor fit]. In the case of Nc1nc(N)c(N=O)c(OCC2CCCCC2)n1, the Potency is reported as “inactive”. In the case of CCCCCC(=O)N1C[C@@H](O)[C@H](n2cc(-c3ccc(F)cc3)nn2)C[C@H]1c1ccc(C)cc1, the Potency is reported as “inactive”. For CO[C@@H]1[C@H](OC(=O)/C=C/C=C/C=C/C=C/C(=O)O)CC[C@]2(CO2)[C@H]1[C@@]1(C)O[C@@H]1CC=C(C)C, the Potency was inconclusive: 7.08 µM [inhibitor, partial curve]. With C=C1c2ccccc2O[C@H](C(=O)OCC)[C@@H]1CC(C)(C)c1ccccc1 the Potency was inconclusive: 22.4 µM [inhibitor, partial curve]. With CC(C)C[C@H](NC(=O)[C@H](Cc1ccccc1)C[C@@H](O)[C@H](Cc1ccccc1)NC(=O)OC(C)(C)C)C(=O)N[C@@H](Cc1ccccc1)C(N)=O the Potency was inconclusive: 31.6 µM [inhibitor, single point]. In the case of COc1cc2c(C)c3c4c(cc(OC)c(OC)c4c2cc1OC)CCN3C, the Potency is reported as inconclusive: 31.6 µM [inhibitor, single point]. With CCC(=O)c1ccc2c(c1)N(CCCN(C)C)c1ccccc1S2 the Potency was active: 31.6 µM. For CC1=C(C)C[C@@]23CCCN2C(=O)CCC[C@H]3C1, the Potency was inconclusive: 50.1 µM [inhibitor, single point]. With COC1C(O)C(C)O[C@@H](OC2CC[C@@]3(C)C4CC[C@]5(C)C(C6=CC(=O)OC6)CC[C@@]5(O)C4CC[C@@H]3C2)C1O (stereo partly drawn) the Potency was active: 0.1 µM. In the case of CC(=O)NCCCCCC(=O)O, the Potency is reported as “inactive”. For O=C(c1cc(-c2ccccc2)on1)N1CCOc2ccc(CN3CCN(c4ccccn4)CC3)cc2C1, the Potency was “inactive”. In the case of CN1C[C@H](C(=O)N[C@]2(C)O[C@@]3(O)C4CCCN4C(=O)[C@H](Cc4ccccc4)N3C2=O)C[C@@H]2c3cccc4[nH]cc(c34)C[C@H]21 (stereo partly drawn), the Potency is reported as inconclusive: 35.5 µM [inhibitor, single point]. With O[C@@H](CNC[C@H](O)[C@H]1CCc2cc(F)ccc2O1)[C@@H]1CCc2cc(F)ccc2O1 the Potency was inconclusive: 25.1 µM [inhibitor, partial curve]. In the case of Oc1ccc(Cl)cc1Sc1cc(Cl)ccc1O, the Potency is reported as active: 12.6 µM. In the case of C=CC[C@@H]1C=C[C@H](ON=C(C)CCN2CCCc3nc(C)c(C)cc32)[C@H](CO)O1, the activity change, negative = inhibition is reported as inactive: 4.39% [at 8.59 µM]. For CC(Oc1cc(-n2cnc3ccc(OC4CCN(C)CC4)cc32)sc1C(N)=O)c1ccccc1Cl (stereo not drawn), the Potency was inconclusive: 0.199 µM [inhibitor, full curve, poor fit]. For CC1(OC(=O)c2ccc(Cl)nc2)C(=O)C=C2C=C(c3ccsc3)OC=C2C1=O (stereo not drawn), the Potency was “inactive”. With CC(C)=Cc1cccc2[nH]c(O)c(N=Nc3ccc(S(N)(=O)=O)cc3)c12 the Potency was inconclusive: 3.97 µM [inhibitor, full curve, poor fit]. For CCCCCCN1C[C@H](O)[C@@H](n2cc(C3CC3)nn2)C[C@H]1c1ccc(OC)cc1, the Potency was inconclusive: 35.3 µM [inhibitor, single point]. With Cc1c(C(=O)NCCc2cccnc2)cnn1-c1nccc(-c2ccccc2F)n1 the Potency was “inactive”. For CCCC1COC(Cn2cncn2)(c2ccc(Cl)cc2Cl)O1 (stereo not drawn), the Potency was active: 12.6 µM. With OC1(c2ccc(Cl)cc2)CCN(Cc2c[nH]c3ccccc23)CC1 the Potency was inconclusive: 35.5 µM [inhibitor, single point]. In the case of COC(=O)c1c(C)cc(OC(=O)c2c(C)cc(O)c(C=O)c2O)c(C)c1O, the Potency is reported as active: 7.94 µM. In the case of C/C=C(/C(=C/C)c1ccc(O)cc1)c1ccc(O)cc1, the Potency is reported as inconclusive: 10 µM [inhibitor, partial curve] and inconclusive: 7.08 µM [inhibitor, partial curve]. For CN1CCC(n2cnc(-c3ccc(F)cc3)c2-c2ccnc(Nc3ccccc3)n2)CC1, the Potency was inconclusive: 15.8 µM [inhibitor, partial curve, poor fit]. For CC1(C)C(=O)C2C[C@]3(O)C4=CC(=O)OC(c5ccoc5)[C@]4(C)CCC3[C@](C)(C2=O)C1CC(=O)O (stereo partly drawn), the Potency was “inactive”. With CC(C)Cc1nc2cc(NS(=O)(=O)N(C)C)cc(C(=O)N3CCc4sccc4C3)c2n1C the Potency was “inactive”. For CCN(CC)Cc1ccc(Nc2ccnc3cc(Cl)ccc23)cc1O, the Potency was inconclusive: 35.5 µM [inhibitor, single point].
